Results are given in words; binding and its absence hold for the method and conditions named.
Target: Human Trio SR6-GEF1 (human) (UniProt O75962)
Assay: SEC; S200 Increase 10/300 GL column in assay buffer; Stokes radii estimated from elution volume against protein standards; both purified

“Human Trio SR6-GEF1 (from UniProt O75962 788-1599) (domain or fragment)” was tested, and the binding was “no binding”.
